The target in this experiment is Grip1-V5 (UniProt P97879). The experiment is described as follows: co-IP.

The chains behind the UniProt entries cited, without tags or fusion partners. Where a name states a change or a piece, a line headed by the entry shows the natural chain unless it says otherwise.
UniProt P97879, whole entry: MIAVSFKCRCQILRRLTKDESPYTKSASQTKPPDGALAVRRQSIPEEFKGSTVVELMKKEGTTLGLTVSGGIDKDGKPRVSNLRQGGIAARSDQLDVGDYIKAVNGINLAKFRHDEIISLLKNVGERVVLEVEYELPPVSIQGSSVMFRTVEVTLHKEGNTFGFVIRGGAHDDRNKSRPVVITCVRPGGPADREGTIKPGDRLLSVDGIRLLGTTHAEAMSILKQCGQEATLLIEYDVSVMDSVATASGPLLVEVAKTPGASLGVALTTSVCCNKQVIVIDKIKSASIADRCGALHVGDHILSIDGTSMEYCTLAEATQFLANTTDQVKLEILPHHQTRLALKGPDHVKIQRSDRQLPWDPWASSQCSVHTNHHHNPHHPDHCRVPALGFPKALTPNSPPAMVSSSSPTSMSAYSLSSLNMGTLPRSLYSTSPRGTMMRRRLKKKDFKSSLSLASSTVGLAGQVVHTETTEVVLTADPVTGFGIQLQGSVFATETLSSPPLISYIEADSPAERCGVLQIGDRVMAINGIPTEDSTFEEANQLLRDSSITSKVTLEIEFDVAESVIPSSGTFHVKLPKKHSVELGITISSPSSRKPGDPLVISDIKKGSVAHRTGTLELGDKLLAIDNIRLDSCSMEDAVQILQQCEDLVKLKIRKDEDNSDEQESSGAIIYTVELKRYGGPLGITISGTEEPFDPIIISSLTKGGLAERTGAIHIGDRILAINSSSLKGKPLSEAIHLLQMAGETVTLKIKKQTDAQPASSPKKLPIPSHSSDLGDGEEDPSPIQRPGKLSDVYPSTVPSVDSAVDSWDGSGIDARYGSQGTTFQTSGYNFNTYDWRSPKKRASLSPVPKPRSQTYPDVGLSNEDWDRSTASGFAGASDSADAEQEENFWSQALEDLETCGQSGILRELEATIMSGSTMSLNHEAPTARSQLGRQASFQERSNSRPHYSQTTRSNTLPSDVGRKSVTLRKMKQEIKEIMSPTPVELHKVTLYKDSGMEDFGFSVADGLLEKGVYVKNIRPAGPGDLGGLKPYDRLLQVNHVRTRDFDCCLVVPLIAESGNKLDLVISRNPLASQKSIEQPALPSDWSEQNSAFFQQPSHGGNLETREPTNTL

These are yes or no findings as the source states them, for the method shown. In cells and extracts the contact can be indirect. Some binding calls cover weakened binding; strength is not graded here.

For “GluA3 (AMPA-receptor subunit GluA3), full length (from UniProt P19492-2 23-888)”, the binding result is recorded as “binds”.
To “GluA3 K887A, full length (from UniProt P19492-2 23-888) (receptor)” belongs “binds”.
To “GluA3 S885A, full length (from UniProt P19492-2 23-888) (receptor)” belongs “no binding”.

The values above are taken from publication doi:10.1101/2021.10.03.462970.
